HELM strings list residues between dots; [ac] is acetyl, [am] amide, other brackets name non-standard units. Starred links: 1 amine or outer side, 2 acyl side, 3 side chain; linkers in the order of their positions; H or OH if unused. Non-standard residues stand in square brackets, D forms with d. X1 = CC(C)[C@@H](C(=O)[*:2])N(C[C@@H](N)Cc1ccccc1)[*:1]

Data set [1] in a line: general procedure: Fmoc solid-phase peptide synthesis; Fmoc-Gln(Trt)-Alko resin; HBTU/HOBt; DCC/HOBt for final Boc-Phe-OH. Conditions: whole synthesis, scale 0.03 mmol.
A short description of data set [2]: general procedure: Fmoc solid-phase peptide synthesis; Fmoc-Gln(Trt)-Alko resin (WATANABE CHEMICAL); HBTU/HOBt; DCC/HOBt for final Boc-Phe-OH. Particulars: whole synthesis, UV 220 nm, scale of the general procedure 0.03 mmol.

As to “PEPTIDE1{F.V.P.I.F.T.Y.G.E.L.Q.R.M.Q.E.K.E.R.N.K.P.Q}$$$$V2.0”, in data set [1], the crude mass result is listed as “about 30 mg” and the isolated mass entry was “about 5.0 mg”. In addition, the “final HPLC purity” value in data set [2] worked out at 96.0%.
Turning to “H-[X1]PIFTYGELQRMQEKERNKPQ-OH (N-terminus and C-terminus assumed; SMILES CC[C@H](C)[C@H](NC(=O)[C@@H]1CCCN1C(=O)[C@@H](NC[C@@H](N)Cc1ccccc1)C(C)C)C(=O)N[C@@H](Cc1ccccc1)C(=O)N[C@H](C(=O)N[C@@H](Cc1ccc(O)cc1)C(=O)NCC(=O)N[C@@H](CCC(=O)O)C(=O)N[C@@H](CC(C)C)C(=O)N[C@@H](CCC(N)=O)C(=O)N[C@@H](CCCNC(=N)N)C(=O)N[C@@H](CCSC)C(=O)N[C@@H](CCC(N)=O)C(=O)N[C@@H](CCC(=O)O)C(=O)N[C@@H](CCCCN)C(=O)N[C@@H](CCC(=O)O)C(=O)N[C@@H](CCCNC(=N)N)C(=O)N[C@@H](CC(N)=O)C(=O)N[C@@H](CCCCN)C(=O)N1CCC[C@H]1C(=O)N[C@@H](CCC(N)=O)C(=O)O)[C@@H](C)O)”, in data set [1], the crude mass result is listed as “about 30 mg” and the isolated mass result is “about 5.0 mg”. Besides, the “final HPLC purity” value in data set [2] is 98.7%.

For the origin of these results see patent US8710184B2 (Daiichi Sankyo Company, Limited, priority 2009, dated 2014).
